Measurements: paper PMC8869728 (Biomedicines, 2022)

What was measured:
Assay type in all cases: in vivo
Settings in all cases: vitisin A or B 40 mg/kg oral; donepezil 5 mg/kg; scopolamine-treated mice
[1] = test system: brain-derived neurotrophic factor (BDNF); experiment: BDNF protein expression in mouse brain tissue extracts (immune blot)
Description: (§1) The isolated whole brain tissue was weighted, and powdered in liquid nitrogen using a mortar and pestle. The proteins in the tissue powders were suspended and extracted by 1 mL, one-fold-diluted PBS. […] The protein contents in tissue extracts were determined by the BCA^TM protein assay kit (Thermo Fisher Scientific Inc.), and BSA was used to plot the standard curve. The AChE activity in the brain extracts was determined following the previous report. […] The malondialdehyde (MDA) levels in the brain extracts was determined using acidic TBA. The 320 μL of 0.5% TBA in 10% trichloroacetic acid was premixed with 80 μL of 5-fold diluted tissue extracts, and then heated at boiling water for 20 min, and then centrifuged at 10,000 rpm, 4 °C for 30 min. […] For determining protein expressions of BDNF and its receptor, TrkB, among brain extracts of the treated mice, the immune stains were performed onto polyvinylidene difluoride (PVDF) membranes (Millipore, Bedford, MA, USA). […] The western chemiluminescent HRP substrate kit (WBKL S0050, Millipore) was used to stain the target protein expressions, which the image system [Syngene GeneGnome5 imaging system (Cambridge, UK)] was used to quantify the image levels of target protein in the immune blots.

[2] = test system: malondialdehyde (MDA) levels; experiment: MDA levels in mouse brain tissue extracts (TBA)
Description: as §1

[3] = test system: tropomyosin receptor kinase B (TrkB); experiment: TrkB protein expression in mouse brain tissue extracts (immune blot)
Description: as §1

COc1cc2c(cc1OC)C(=O)C(CC1CCN(Cc3ccccc3)CC1)C2 (stereo not drawn) [donepezil, reference compound]
BDNF protein expression in brain tissue extracts [1]: recover both protein expressions of the reduced BDNF and TrkB | MDA levels in brain tissue extracts compared to the control [2]: lower increase in AChE and MDA levels | TrkB protein expression in brain tissue extracts [3]: recover both protein expressions of the reduced BDNF and TrkB
